For the experiment, the target named is iRhom2_ΔIRHD (human) (UniProt Q6PJF5). Kind of experiment: co-IP.

Results are given in words; binding and its absence hold for the method and conditions named. Binding seen in cells or lysates may run through a third protein. A result given as binding can be weak or reduced; the word gives no strength. Where a sequence is shown, tags or fusion partners need not be part of it.

B1: SEC11A-Myc-FLAG (enzyme, UniProt P67812 1-179)
chain: MLSLDFLDDVRRMNKRQLYYQVLNFGMIVSSALMIWKGLMVITGSESPIVVVLSGSMEPAFHRGDLLFLTNRVEDPIRVGEIVVFRIEGREIPIVHRVLKIHEKQNGHIKFLTKGDNNAVDDRGLYKQGQHWLEKKDVVGRARGFVPYIGIVTILMNDYPKFKYAVLFLLGLFVLVHRE
Turning to B1, the binding entry is “binds”.

These data come from article doi:10.1101/2022.11.28.518246.
